# According to PubChem BioAssay AID504444 (National Center for Advancing Translational Sciences (NCATS), 2011):
# About 7,500 (2.1%) of roughly 360,000 compounds were called active. This list was built around the results that the source calls inconclusive (neither active nor inactive); the mix of calls is not that of the screen. Calls come from the whole dose curve; as a rule, active = well fitted inhibition curve with a large enough effect; inconclusive = small, poorly fitted or top-dose-only effect, or effect the other way; inactive = flat fitted curve, though single readings scatter. Potencies of inconclusive entries are doubtful fits and often do not repeat.
# Assay: Nrf2 qHTS screen for inhibitors; note: nearly all actives have a fitted effect of over 60% in size
# Conditions: A549 ARE-Fluc reporter, luciferase luminescence, 18-24 h; activity change, negative = inhibition: at 46 µM (top of the series)
# How it was run: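 Two sequential reads on A549 ARE_Fluc cells exposed to compound for 18-24 h: a CellTiter-Fluor fluorescence read for viability, then a luciferase luminescence read for Nrf2/ARE activity.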
# % is set by controls: 0 for no effect and ±100 for the full control effect; potency is the fitted concentration of half-maximal effect.
SMILES,Potency,"activity change, negative = inhibition"
COc1ccc(-n2nnnc2C2CCN(S(=O)(=O)c3ccc(C)cc3)CC2)cc1,"inconclusive: 16.4 µM [falling, single point]",
COc1cc2c(cc1OC)C(COc1ccc3c(C)cc(=O)oc3c1)N(C(=O)c1ccccc1C)CC2 (stereo not given),,inactive: 6.78% [at 9.27 µM]
COc1ccc(NC(=O)CSc2nc3sc(C)cc3c(=O)n2C)c(OC)c1,active: 18.4 µM,
N#CCC(=O)N/N=C/c1ccc(OCc2ccccc2)cc1,"inconclusive: 20.6 µM [activator, partial curve, poor fit]",
COc1cccc2cc(C(=O)Nc3cccc(C)n3)c(=O)oc12,"inconclusive: 23.1 µM [activator, single point]",
O=C(Nn1cc(C(=O)Nc2ccc(F)cc2F)c2ccccc2c1=O)c1cnccn1,"inconclusive: 16.4 µM [falling, single point]",
CCC(=O)Nc1cc2nn(-c3ccc(OC)cc3)nc2cc1C,"inconclusive: 0.231 µM [activator, partial curve, poor fit]",
COc1ccc(S[C@@H](CCN2CC[C@H](C)CCC2=O)c2ccccc2)cc1,"inconclusive: 29.1 µM [falling, single point]",
Cc1ccc(C)c(N2CCN(C(=O)CCC(=O)N3CCOc4ccc(Cl)cc43)CC2)c1,"inconclusive: 23.1 µM [falling, single point]",
CSCCC(NC(=O)COc1ccccc1)C(=O)N(C)CC(=O)Nc1ccc(Cl)cc1 (stereo not given),"inconclusive: 16.4 µM [falling, single point]",
CC(C)Cc1ccc(CN2CCCC(NC(=O)c3cnc4ccccn4c3=O)C2)cc1 (stereo not given),"inconclusive: 32.6 µM [falling, single point]",
CCN(CC)S(=O)(=O)c1cccc(NC(=O)c2ccc(-n3nc(C)cc3C)cc2)c1,active: 18.4 µM,
CCn1cc([N+](=O)[O-])c(C(=O)Nc2nc(-c3ccc(C)c(C)c3)c(C)s2)n1,active: 16.4 µM,
COc1ccc([C@H]2CC(=O)C=C(c3ccc(Oc4ccccc4)cc3)C2)cc1OC,"inconclusive: 23.1 µM [falling, single point]",
CCOc1ccc(OCCSc2nc(C)cc(=O)[nH]2)cc1,"inconclusive: 29.1 µM [activator, single point]",
O=C(O)c1cc(N/N=C/C(Cl)=C/c2ccccc2)ccc1Cl,"inconclusive: 1.84 µM [activator, full curve]",
CCOc1ncccc1C(=O)OCC(=O)Nc1ccc2c(c1)CCC2,"inconclusive: 29.1 µM [activator, single point]",
Nc1ccc(C(=O)c2cccs2)cn1,"inconclusive: 25.9 µM [activator, partial curve, poor fit]",
C/C=C/c1ccc(OCCn2nnc3ccccc32)c(OC)c1,"inconclusive: 2.91 µM [activator, partial curve]",
CCOC(=O)C1=Nc2ccccc2C1=[N+]=[N-],"inconclusive: 5.17 µM [falling, partial curve]",
COC(=O)CN1C(=O)[C@@H]2[C@H](C1=O)[C@@H]1CC(C(=O)OC)=C[C@@H](C(=O)OC)C3C1=C(C(=O)C31CCCCC1)[C@@H]2C (stereo not given in full),"inconclusive: 0.326 µM [falling, full curve, poor fit]",
COc1ccccc1C(=O)N/C(=C\c1ccccc1)C(=O)NC(C)C(=O)O (stereo not given),"inconclusive: 32.6 µM [falling, single point]",

# Grouped by structure, the entries above with a Cl atom
SMILES,Potency,"activity change, negative = inhibition"
Cc1ccc(C)c(N2CCN(C(=O)CCC(=O)N3CCOc4ccc(Cl)cc43)CC2)c1,"inconclusive: 23.1 µM [falling, single point]",
CSCCC(NC(=O)COc1ccccc1)C(=O)N(C)CC(=O)Nc1ccc(Cl)cc1 (stereo not given),"inconclusive: 16.4 µM [falling, single point]",
O=C(O)c1cc(N/N=C/C(Cl)=C/c2ccccc2)ccc1Cl,"inconclusive: 1.84 µM [activator, full curve]",

# Continuation:

SMILES,Potency,"activity change, negative = inhibition"
O=C(COc1ccc(-c2nnc(N3CCCCC3)c3ccccc23)cc1)N1CCCCC1,"inconclusive: 29.1 µM [falling, single point]",
Cc1cc2c(cc1C)N(C(=O)CSc1nncn1C)C(C)(C)c1ssc(=S)c1-2,"inconclusive: 29.1 µM [falling, single point]",
CCCSc1nc(-c2ccccc2)[nH]c1S(=O)(=O)c1ccc(C)cc1,"inconclusive: 25.9 µM [falling, partial curve, poor fit]",
Cc1c(NC(=O)c2cn3ccccc3n2)cccc1-n1cnnn1,"inconclusive: 2.06 µM [activator, full curve]",
Cc1cc(C(=O)Nc2ccc(Cl)cc2)c(C)n1-c1ccccc1,"inconclusive: 16.4 µM [falling, single point]",
COc1ccc([C@H]2CC(=O)C=C(c3ccc(C)c(F)c3)C2)cc1,,inactive: 9.72%
COc1ccc2cc(-c3cc(C(=O)O)c4ccccc4n3)ccc2c1,"inconclusive: 14.6 µM [falling, partial curve, poor fit]",
O=C(NNC(=O)c1ccc([N+](=O)[O-])cc1)c1ccc(Br)cc1,,inactive: -19.3%
COc1cc(/C=C2/SC(=S)NC2=O)ccc1OS(=O)(=O)c1ccc(C)cc1,"inconclusive: 18.4 µM [falling, single point]",
COc1ccc2c(c1)c1c(c(=O)n(Cc3ccccc3)c(=O)n1Cc1cccc(Cl)c1)n2C,"inconclusive: 10.3 µM [activator, partial curve]",
COc1ccc(Cl)cc1N(C(=O)c1ccco1)C(C(=O)NC1CCCC1)c1ccco1 (stereo not given),,inactive: 2.86%
Cc1cc(C)c2oc(-c3ccc(Cl)c(NC(=O)c4cccs4)c3)nc2c1,"inconclusive: 9.2 µM [activator, partial curve, poor fit]",
CCOC(=O)C1CCN(C(=O)CCc2nnc3ccc(N4CCN(C)CC4)nn23)CC1,"inconclusive: 29.1 µM [activator, partial curve, poor fit]",
Cc1ccc(S(=O)(=O)NCc2ccccc2)cc1C(=O)N1CCN(S(=O)(=O)c2ccccc2)CC1,,inactive: -0.135%
CN(Cc1ccc(F)cc1)C(=O)CNC(=O)c1cccs1,,inactive: 4.89%
Cc1cc(Cl)ccc1NC(=O)c1ccc2c(c1)CCN2S(C)(=O)=O,"inconclusive: 10.3 µM [falling, partial curve, poor fit]",
CCc1ccc(NC(=O)C2CCCN2S(=O)(=O)c2ccc3c(c2)CCCC(=O)N3)cc1 (stereo not given),"inconclusive: 29.1 µM [falling, single point]",
COc1ccc(C)cc1COC(=O)c1[nH]c(C)c(C(C)=O)c1C,"inconclusive: 29.1 µM [falling, single point]",
COc1ccc(CCNC(=O)c2ccc(Cn3c(=O)c4ccccc4n(Cc4cccc(F)c4)c3=O)cc2)cc1OC,"inconclusive: 4.61 µM [falling, full curve]",
COc1ccc(C2=NN(C(=O)CSc3ncccn3)C(c3cccc(OC)c3OC)C2)cc1 (stereo not given),,inactive: -20.4%
COc1ccc(C(C)=O)cc1CC(=O)Nc1cccc(S(=O)(=O)N2CCOCC2)c1,,inactive: -27.1%
COc1ccc(CNc2ccc3c(c2)ncn3-c2ccccc2OC)cc1,active: 18.4 µM,

SMILES,Potency,"activity change, negative = inhibition"
CCN(CC)C(=O)CSc1nc2ccc(NC(=O)CSc3nccn3C)cc2s1,"inconclusive: 32.6 µM [falling, single point]",
CCOc1ccc(S(=O)(=O)NCC2CCCO2)c2ccccc12 (stereo not given),,inactive: -7.01%
Cc1cc2c(cc1NS(=O)(=O)c1cccc(C#N)c1)n(C)c(=O)c(=O)n2C,"inconclusive: 20.6 µM [activator, partial curve, poor fit]",
O=C(N/N=C/C=C/c1ccccc1)c1cccs1,,inactive: 7.06%
O=C(c1cc2ccccc2c(=O)o1)N1CCCc2ccccc21,"inconclusive: 5.17 µM [activator, full curve, poor fit]",
Cc1ccc(-n2c(O)c(C=NC3CCS(=O)(=O)C3)c3ccccc3c2=O)cc1C (stereo not given),"inconclusive: 18.4 µM [falling, partial curve, poor fit]",
COc1ccc(-c2ccc(-c3noc(-c4ccccc4F)n3)c(OC)n2)cc1,"inconclusive: 6.51 µM [activator, single point]",
CC1=Nc2cc(C(=O)N3CCC(C)CC3)ccc2Sc2ccc(Cl)cc21,active: 16.4 µM,
C=C(C)CNC(=S)N/N=C/c1ccco1,,inactive: 8.81%
CCOC(=O)CCCN1CC(O)=C(c2nc(-c3ccc(Cl)cc3)cs2)C1=N,"inconclusive: 6.51 µM [falling, single point]",
O=C(NC(=S)NC(c1ccccc1)c1ccncc1)c1ccccc1 (stereo not given),"inconclusive: 20.6 µM [falling, single point]",
CCOC(=O)c1ccc(N2C(=O)c3n[nH]c(-c4ccco4)c3C2c2cccc(OC)c2)cc1 (stereo not given),"inconclusive: 29.1 µM [falling, single point]",
CCNc1ccc(C(=O)O)cc1N,,inactive: 23.7%
Cc1oc(-c2ccc(C(=O)NCc3cccc(F)c3)cc2)nc1COc1ccccc1,,inactive: -13.7%
CC1CCN(CCOCCOc2ccccc2-c2ccccc2)CC1,"inconclusive: 2.31 µM [activator, partial curve, poor fit]",
COc1ccc(NC(=O)CCc2c(C)nn(-c3ccc(N4CCCCC4)nn3)c2C)cc1Cl,"inconclusive: 29.1 µM [falling, partial curve, poor fit]",
N#Cc1c(C(F)(F)F)cc(-c2ccc(F)cc2)nc1SCC(=O)Nc1ccccc1,"inconclusive: 14.6 µM [falling, partial curve, poor fit]",
CS(=O)(=O)N1CCc2cc(C(=O)Nc3cccc([N+](=O)[O-])c3)ccc21,"inconclusive: 18.4 µM [falling, partial curve, poor fit]",
Cn1c2ccccc2c2nn(-c3ccccc3)c(=O)cc21,"inconclusive: 5.8 µM [activator, single point]",
CCOC(=O)C1CCCN(C(=O)c2ccc3c(c2)sc2nc(-c4ccc(CC)cc4)cn23)C1 (stereo not given),,inactive: -9.95%
Cc1ccc(-c2noc(-c3ccccc3C(=O)NCc3ccco3)n2)cc1,"inconclusive: 20.6 µM [activator, partial curve, poor fit]",
